Protein sequences, listed by entry. Tags and fused reporters are not part of them. Lines headed by an entry give the natural chain unless they say otherwise; changes in a name come on top. Residues count along the entry.
UniProt Q9CQN4, residues 24-206: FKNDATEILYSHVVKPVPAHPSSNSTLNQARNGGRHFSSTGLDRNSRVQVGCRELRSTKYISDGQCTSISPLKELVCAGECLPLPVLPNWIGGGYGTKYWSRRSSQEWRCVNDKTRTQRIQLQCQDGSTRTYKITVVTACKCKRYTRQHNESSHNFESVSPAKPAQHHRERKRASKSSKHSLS
UniProt O75581: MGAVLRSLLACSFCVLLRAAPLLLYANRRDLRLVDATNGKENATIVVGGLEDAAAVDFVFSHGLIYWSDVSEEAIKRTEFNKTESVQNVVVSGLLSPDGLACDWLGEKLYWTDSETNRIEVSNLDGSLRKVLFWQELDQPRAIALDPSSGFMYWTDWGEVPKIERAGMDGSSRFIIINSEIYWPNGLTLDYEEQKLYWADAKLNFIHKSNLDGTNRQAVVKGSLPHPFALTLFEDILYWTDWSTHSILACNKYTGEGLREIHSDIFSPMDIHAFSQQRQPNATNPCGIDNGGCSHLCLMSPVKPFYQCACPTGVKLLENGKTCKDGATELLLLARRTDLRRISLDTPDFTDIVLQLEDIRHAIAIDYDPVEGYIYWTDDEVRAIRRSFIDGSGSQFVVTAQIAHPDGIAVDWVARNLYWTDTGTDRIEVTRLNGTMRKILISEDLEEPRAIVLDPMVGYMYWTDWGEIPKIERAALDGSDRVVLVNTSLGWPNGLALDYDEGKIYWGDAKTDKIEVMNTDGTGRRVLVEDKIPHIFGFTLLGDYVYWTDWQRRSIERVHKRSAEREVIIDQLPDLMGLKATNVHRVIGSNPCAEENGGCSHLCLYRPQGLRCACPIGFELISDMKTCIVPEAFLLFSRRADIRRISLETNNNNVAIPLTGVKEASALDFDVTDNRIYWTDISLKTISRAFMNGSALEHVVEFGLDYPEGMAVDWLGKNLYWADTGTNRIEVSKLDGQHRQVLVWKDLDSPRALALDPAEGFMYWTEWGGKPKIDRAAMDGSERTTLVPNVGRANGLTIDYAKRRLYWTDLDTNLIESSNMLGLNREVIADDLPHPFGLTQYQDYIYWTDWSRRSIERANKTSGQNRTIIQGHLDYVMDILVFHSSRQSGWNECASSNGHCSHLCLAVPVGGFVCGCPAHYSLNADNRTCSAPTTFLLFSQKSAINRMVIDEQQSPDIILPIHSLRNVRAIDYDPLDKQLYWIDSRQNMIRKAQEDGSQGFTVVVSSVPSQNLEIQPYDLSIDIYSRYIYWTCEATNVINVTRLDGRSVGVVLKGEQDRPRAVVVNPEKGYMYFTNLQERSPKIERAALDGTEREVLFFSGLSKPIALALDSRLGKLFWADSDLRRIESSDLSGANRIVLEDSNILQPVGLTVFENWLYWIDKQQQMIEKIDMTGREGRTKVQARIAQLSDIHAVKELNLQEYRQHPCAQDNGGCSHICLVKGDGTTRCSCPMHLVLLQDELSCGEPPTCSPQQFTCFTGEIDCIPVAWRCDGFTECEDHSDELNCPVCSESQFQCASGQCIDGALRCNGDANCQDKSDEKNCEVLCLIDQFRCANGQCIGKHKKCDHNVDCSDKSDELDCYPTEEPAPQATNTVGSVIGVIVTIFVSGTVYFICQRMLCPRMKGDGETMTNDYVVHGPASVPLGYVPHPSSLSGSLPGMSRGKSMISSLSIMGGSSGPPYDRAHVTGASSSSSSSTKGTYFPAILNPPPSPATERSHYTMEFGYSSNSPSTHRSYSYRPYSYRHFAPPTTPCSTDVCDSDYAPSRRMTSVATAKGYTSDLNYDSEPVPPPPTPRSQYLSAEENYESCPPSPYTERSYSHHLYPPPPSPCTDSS

According to patent publication US20220259298A1 (KYOTO UNIVERSITY, published 2022):

What was measured:
[1] = target: N-terminal PA-tagged mouse USAG-1 (WISE) recombinant protein (mouse) (UniProt Q9CQN4); experiment: pull-down: mouse PA-USAG-1 held on Protein A sepharose by the named anti-USAG-1 antibody (or on NZ-1), then LRP6-E1E2 supernatant; SDS-PAGE, Oriole stain
[2] = target: LRP6-E1E2 (a region of amino acid numbers 1 to 629 of human LRP6, fused to a His tag) (human) (UniProt O75581); experiment: co-immunoprecipitation with the anti-PA tag antibody NZ-1, SDS-PAGE with Oriole fluorescence staining

| binding [1] | binding [2] | Substance |
| --- | --- | --- |
| binds | – | LRP6-E1E2 (a region of amino acid numbers 1 to 629 of human LRP6, fused to a His tag) (from UniProt O75581) (receptor) |
| – | binds | N-terminal PA-tagged mouse USAG-1 (WISE) recombinant protein (from UniProt Q9CQN4 24-206) (ligand) |

Results are given in words; binding and its absence hold for the method and conditions named. Binding seen in cells or lysates may run through a third protein. Binding calls can cover weak binding; strength is not graded here.
